Test results reported in paper PMC10679541.
These are yes or no findings as the source states them, for the method shown. Binding seen in cells or lysates may run through a third protein. Some entries that bind do so weakly or less than the wild type. Sequences can lack the tags named with a protein.

The chains behind the UniProt entries cited, without tags or fusion partners.
UniProt P09405: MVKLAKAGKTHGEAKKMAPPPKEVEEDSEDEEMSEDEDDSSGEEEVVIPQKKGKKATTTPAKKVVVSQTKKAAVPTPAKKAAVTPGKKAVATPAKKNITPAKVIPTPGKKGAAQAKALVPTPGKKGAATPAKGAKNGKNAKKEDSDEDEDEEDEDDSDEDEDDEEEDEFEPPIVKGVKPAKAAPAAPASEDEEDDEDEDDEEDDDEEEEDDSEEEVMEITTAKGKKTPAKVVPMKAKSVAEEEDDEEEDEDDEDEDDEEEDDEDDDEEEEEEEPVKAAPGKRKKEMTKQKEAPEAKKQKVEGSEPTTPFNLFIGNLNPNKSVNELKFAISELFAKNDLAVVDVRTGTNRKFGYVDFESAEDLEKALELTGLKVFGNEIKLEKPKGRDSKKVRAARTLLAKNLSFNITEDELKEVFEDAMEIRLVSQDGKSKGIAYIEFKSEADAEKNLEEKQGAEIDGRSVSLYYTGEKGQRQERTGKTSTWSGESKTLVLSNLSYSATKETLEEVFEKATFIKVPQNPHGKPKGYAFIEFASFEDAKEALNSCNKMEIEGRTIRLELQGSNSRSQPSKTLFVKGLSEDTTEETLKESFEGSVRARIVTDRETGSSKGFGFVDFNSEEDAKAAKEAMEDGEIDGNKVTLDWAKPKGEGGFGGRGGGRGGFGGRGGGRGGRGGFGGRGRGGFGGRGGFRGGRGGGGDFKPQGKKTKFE

Target: T1, STAG1 (mouse (endogenous in mESCs)) (UniProt Q9D3E6)
T1 sequence: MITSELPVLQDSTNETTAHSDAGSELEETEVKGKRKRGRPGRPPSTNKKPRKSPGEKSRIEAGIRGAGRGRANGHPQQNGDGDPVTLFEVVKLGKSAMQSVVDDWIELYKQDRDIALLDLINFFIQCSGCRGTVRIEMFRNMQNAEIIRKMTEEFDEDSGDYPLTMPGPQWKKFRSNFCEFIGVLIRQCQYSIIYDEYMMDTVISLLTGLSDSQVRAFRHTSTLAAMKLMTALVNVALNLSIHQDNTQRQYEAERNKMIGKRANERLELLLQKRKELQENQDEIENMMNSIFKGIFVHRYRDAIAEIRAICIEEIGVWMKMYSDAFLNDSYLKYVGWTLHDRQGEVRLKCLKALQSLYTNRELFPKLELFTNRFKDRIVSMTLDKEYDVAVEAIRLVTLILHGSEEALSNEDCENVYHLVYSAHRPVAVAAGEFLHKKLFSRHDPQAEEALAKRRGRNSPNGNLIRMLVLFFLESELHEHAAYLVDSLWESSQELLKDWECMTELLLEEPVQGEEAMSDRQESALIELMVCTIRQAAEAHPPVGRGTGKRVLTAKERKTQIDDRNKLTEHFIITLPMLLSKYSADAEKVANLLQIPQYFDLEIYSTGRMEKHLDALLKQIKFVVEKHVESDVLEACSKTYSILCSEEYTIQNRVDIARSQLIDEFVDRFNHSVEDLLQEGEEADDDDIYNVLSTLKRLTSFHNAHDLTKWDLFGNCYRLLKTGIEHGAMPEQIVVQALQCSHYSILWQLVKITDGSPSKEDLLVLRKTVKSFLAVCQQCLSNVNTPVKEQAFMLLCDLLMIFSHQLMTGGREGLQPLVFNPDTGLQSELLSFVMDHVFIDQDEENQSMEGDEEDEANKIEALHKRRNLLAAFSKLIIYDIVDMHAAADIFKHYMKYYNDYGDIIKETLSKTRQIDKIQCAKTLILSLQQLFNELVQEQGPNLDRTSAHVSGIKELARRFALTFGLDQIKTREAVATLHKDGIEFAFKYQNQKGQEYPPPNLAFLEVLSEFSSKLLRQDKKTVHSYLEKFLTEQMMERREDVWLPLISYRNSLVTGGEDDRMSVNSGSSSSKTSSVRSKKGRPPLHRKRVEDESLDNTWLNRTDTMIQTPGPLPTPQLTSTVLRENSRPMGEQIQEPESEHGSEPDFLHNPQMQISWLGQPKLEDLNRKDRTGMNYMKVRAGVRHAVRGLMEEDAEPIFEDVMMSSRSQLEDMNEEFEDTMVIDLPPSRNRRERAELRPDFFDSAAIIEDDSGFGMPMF
Assay: co-IP; immunoprecipitation of endogenous STAG1 (IgG as control) from chromatin of wild-type mESCs, western blot for STAG1, NCL and TRIM28

Nucleolin (from UniProt P09405 1-707) was tested, and the binding was “binds”.
